Test results reported in PMC4423191.
No constants are given. Whether binding was seen depends on the method and setting. In cells and extracts the contact can be indirect. Some binding calls cover weakened binding; strength is not graded here.

Protein sequences, listed by entry. Tags and fused reporters are not part of them.
UniProt Q9BUH6: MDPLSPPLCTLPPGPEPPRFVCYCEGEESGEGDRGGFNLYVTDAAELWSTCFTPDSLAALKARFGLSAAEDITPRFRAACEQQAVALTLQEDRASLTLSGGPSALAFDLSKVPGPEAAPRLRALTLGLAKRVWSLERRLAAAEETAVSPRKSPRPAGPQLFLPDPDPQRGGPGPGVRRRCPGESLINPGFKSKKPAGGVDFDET
UniProt Q13426: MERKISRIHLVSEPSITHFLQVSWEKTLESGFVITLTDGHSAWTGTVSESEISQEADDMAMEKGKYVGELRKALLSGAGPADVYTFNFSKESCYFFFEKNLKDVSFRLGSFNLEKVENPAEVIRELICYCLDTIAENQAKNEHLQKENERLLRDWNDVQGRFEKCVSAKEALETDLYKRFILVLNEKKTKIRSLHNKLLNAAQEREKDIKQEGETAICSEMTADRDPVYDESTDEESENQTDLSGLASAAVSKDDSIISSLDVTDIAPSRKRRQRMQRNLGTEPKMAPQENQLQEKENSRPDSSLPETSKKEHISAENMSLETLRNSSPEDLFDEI

Target: FLAG-tagged XLS (c9orf142) (human) (UniProt Q9BUH6)
Test: co-IP; anti-FLAG IP of FLAG-XLS from nuclear extracts of transiently transfected HEK293S cells (untreated or 10 Gy X-ray, 30 min recovery), FLAG peptide elution, immunoblot; control pCMX-LacZ

binding: binds
Substance: XRCC4 (from UniProt Q13426 1-336)
